PubChem BioAssay AID686938 | Drosophila RNAi Screening Center, 2013
Assay: 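Looking for CRAC channel components and the factors controlling them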 (primary screen). System: Drosophila S2R+ cells. Reagent: long dsRNA against Drosophila genes, about 0.25 µg dsRNA per well, roughly 10,000 cells. Timing: 5 days of knock-down before the calcium assay. Treatment: thapsigargin (SERCA pump blocker) to empty calcium stores; entry signal taken 4 min after adding it. Detection: 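Per-well fluo-4 fluorescence in two replicates, unnormalised, measured in resting cells and 4 min after store depletion by the SERCA blocker thapsigargin; ratio of the two present in few wells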. Scale: calcium entry signal: higher = stronger calcium signal after store depletion; entry to resting ratio: higher = more calcium entry relative to resting level; resting calcium signal: higher = higher resting calcium signal. Hit rule: 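Called when the plate z-score of the entry-to-rest ratio, mean of duplicates, falls below −3; wells with low overall dye signal (Fmax z below −2) or more than five off-targets excluded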. Calls: active = strongly reduced calcium entry; inactive = no strong reduction.
The deposit covers about 23,000 reagents; below is an unselected part of those that have a named target and a result. Over the whole deposit, 75 (0.33%) got an active call. 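Raw plate signals without normalisation; calls rest on plate z-scores that were not deposited; ratio present for only 364 wells.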 A number with no mark means an inactive call. Names joined by + are all predicted targets of the reagent. The record does not give: the dose of the treatment.

no.	gene	DRSC id	calcium entry signal, replicate 1 (fluorescence units)	calcium entry signal, replicate 2 (fluorescence units)	entry to resting ratio	resting calcium signal, replicate 1 (fluorescence units)	resting calcium signal, replicate 2 (fluorescence units)
1	CG43795 + SkpF	DRSC04120	3.35e7	3.92e7		1.82e7	1.67e7
2	tsu (GeneID 35924)	DRSC07265	6.97e7	4.22e7		2.61e7	1.72e7
3	cg (GeneID 36571)	DRSC07650	2.40e7	2.64e7		1.93e7	1.55e7
4	cg (GeneID 36571)	DRSC23142	3.05e7	2.95e7		1.81e7	1.48e7
5	CG32772 (GeneID 31420)	DRSC18052	3.19e7	3.22e7		1.71e7	1.87e7
6	CG32772 (GeneID 31420)	DRSC18406	2.53e7	2.16e7		1.15e7	1.03e7
7	CG32772 (GeneID 31420)	DRSC22349	3.25e7	4.77e7		1.67e7	2.31e7
8	Jon25Biii (GeneID 33706)	DRSC03115	4.14e7	3.62e7		1.93e7	1.80e7
9	Frq2 (GeneID 32799)	DRSC20245	3.25e7	3.52e7		1.73e7	1.64e7
10	Cnep1r2 (GeneID 39204)	DRSC10950	3.37e7	2.56e7		2.43e7	1.06e7
11	CG8852 (GeneID 33577)	DRSC00719	3.44e7	4.09e7		1.71e7	1.95e7
12	Chd64 (GeneID 38490)	DRSC08649	5.02e7	3.68e7		3.45e7	1.55e7
13	Sln (GeneID 36263)	DRSC07133	3.33e7	5.15e7		1.63e7	2.05e7
14	pie (GeneID 44315)	DRSC03590	4.40e7			2.50e7	
15	CG32750 (GeneID 326238)	DRSC18848	3.50e7	3.68e7		1.71e7	1.91e7
16	Atg7 (GeneID 37141)	DRSC05741	3.09e7	3.34e7		1.46e7	1.77e7
17	Atg7 (GeneID 37141)	DRSC06937	5.44e7	5.94e7		2.48e7	2.75e7
18	Pis (GeneID 32506)	DRSC20178	2.83e7	3.33e7		1.51e7	1.49e7
19	ppk (GeneID 34843)	DRSC03595	5.73e7	3.39e7		2.31e7	1.64e7
20	lilli (GeneID 33496)	DRSC00708	3.32e7	4.18e7		2.11e7	1.91e7
21	lms (GeneID 37322)	DRSC06387	2.09e7	3.09e7		1.14e7	1.39e7

The list goes on (4 carried over from the part before).
no.	gene	DRSC id	calcium entry signal, replicate 1 (fluorescence units)	calcium entry signal, replicate 2 (fluorescence units)	entry to resting ratio	resting calcium signal, replicate 1 (fluorescence units)	resting calcium signal, replicate 2 (fluorescence units)
18	Pis (GeneID 32506)	DRSC20178	2.83e7	3.33e7		1.51e7	1.49e7
19	ppk (GeneID 34843)	DRSC03595	5.73e7	3.39e7		2.31e7	1.64e7
20	lilli (GeneID 33496)	DRSC00708	3.32e7	4.18e7		2.11e7	1.91e7
21	lms (GeneID 37322)	DRSC06387	2.09e7	3.09e7		1.14e7	1.39e7
22	GC2 (GeneID 41449)	DRSC14476	4.45e7	2.82e7		2.06e7	1.48e7
23	GstS1 (GeneID 36927)	DRSC07436	2.38e7	2.60e7		1.01e7	1.23e7
24	Pp1-Y2 (GeneID 3355173)	DRSC21608	2.52e7	3.46e7		1.31e7	1.57e7
25	Mps1 (GeneID 42126)	DRSC16273	3.75e7	4.04e7		1.74e7	1.71e7
26	cmet (GeneID 53561)	DRSC03511	3.20e7	4.52e7		1.74e7	1.87e7
27	aop (GeneID 33392)	DRSC00801	2.54e7	2.71e7		1.48e7	1.41e7
28	aop (GeneID 33392)	DRSC22999	4.53e7	4.41e7		2.28e7	1.96e7
29	MED20 (GeneID 43952)	DRSC03463	2.57e7	3.50e7		1.28e7	1.61e7
30	nod (GeneID 32107)	DRSC18900	3.12e7	2.98e7		1.57e7	1.41e7
31	nod (GeneID 32107)	DRSC20356	3.34e7	4.03e7		1.61e7	1.89e7
32	mei-38 (GeneID 31104)	DRSC18564	3.99e7	4.63e7	1.8	2.21e7	2.14e7
33	Naa35 (GeneID 37866)	DRSC04447	4.29e7			2.18e7	
34	CG1116 (GeneID 40622)	DRSC12166	3.60e7	2.83e7		1.75e7	1.28e7
35	tbrd-3 (GeneID 246604)	DRSC04295	3.94e7	4.05e7		1.99e7	1.90e7
36	kcc (GeneID 37800)	DRSC04316	3.32e7			1.62e7	
37	kcc (GeneID 37800)	DRSC04516	4.16e7	4.45e7		2.05e7	2.08e7
38	CG5250 (GeneID 42308)	DRSC15752	2.68e7	3.63e7		3.67e7	1.56e7
39	AGO2 (GeneID 39683)	DRSC09999	3.16e7	3.83e7		1.52e7	1.66e7
40	AGO2 (GeneID 39683)	DRSC10847	3.78e7	4.15e7		1.81e7	2.89e7
41	Bub1 (GeneID 33758)	DRSC02357	5.42e7			2.63e7	
42	Bub1 (GeneID 33758)	DRSC23158	3.35e7	3.44e7		1.60e7	1.53e7
43	mTTF (GeneID 34837)	DRSC01909	5.03e7	3.73e7		2.21e7	1.80e7
44	IntS8 (GeneID 36886)	DRSC07417	3.76e7	3.95e7		1.82e7	1.94e7
45	Cyp301a1 (GeneID 36378)	DRSC07365	3.09e7	4.50e7		1.54e7	1.93e7
46	CG2291 (GeneID 35804)	DRSC06836	3.49e7	3.78e7		1.56e7	1.61e7
47	CG34135 + Nasp + CG11768	DRSC14377	4.57e7	3.25e7		2.08e7	1.61e7
48	CG34135 + Nasp + CG11768	DRSC16397	3.83e7	2.67e7		1.99e7	1.42e7
49	CG34135 + Nasp + CG11768	DRSC23219	4.65e7	3.02e7		2.14e7	1.45e7
50	CG31697 (GeneID 35243)	DRSC22273	2.51e7	2.94e7		1.23e7	1.50e7
51	CG34284 (GeneID 5740234)	DRSC14773	1.46e7	3.52e7		3.46e7	1.38e7
52	SamDC (GeneID 34396)	DRSC03429	4.60e7			2.27e7	
53	CG9512 (GeneID 32419)	DRSC20189	2.72e7	3.53e7		1.21e7	1.46e7
54	Spt (GeneID 35889)	DRSC07123	2.60e7	2.62e7		1.25e7	1.12e7
55	CG3734 (GeneID 42318)	DRSC15509	4.00e7	4.21e7		3.97e7	1.79e7
56	RpL10Aa (GeneID 41811)	DRSC15518	2.23e7	3.79e7		1.23e7	5.93e7
57	Ance-2 (GeneID 34806)	DRSC02539	4.17e7	3.12e7		1.91e7	1.54e7
58	Hexim (GeneID 41778)	DRSC15490	2.67e7	3.72e7		1.29e7	1.61e7
